Values from PubChem BioAssay AID652272 (Drosophila RNAi Screening Center, 2013)
Screen: 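Genes whose knock-down decreases or increases Hedgehog reporter output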 (primary screen). Cell system: Drosophila clone 8 (Cl8) cells. Reagent: long dsRNA against Drosophila genes. Detection: 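Firefly light from a Hedgehog-responsive ptc promoter reporter and Renilla reference light, both read on a plate reader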. Direction: firefly Hh reporter signal: higher = more ptc reporter light; Renilla reference signal: higher = more Renilla control light. Call rule: 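Called a hit if the two-replicate mean z-score lies below -2 or above +3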. Meaning of the calls: active = hit: reporter lowered or raised; inactive = not a hit.
The screen tested about 21,000 reagents; shown is an unselected part of those that have a named target and a result. Over the whole deposit, 503 (2.4%) got an active call. 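Raw plate light values, not normalised; calls rest on replicate z-scores that were not deposited; hits include reporter decreases as well as increases.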 No sequences are given here. The record does not give: the amount of reagent, the time to read-out.

With knock-down of Rdh1 (GeneID 35708) [DRSC06812] the results were firefly Hh reporter signal, replicate 1 = 1.22e5; firefly Hh reporter signal, replicate 2 = 91156; Renilla reference signal, replicate 1 = 4480; Renilla reference signal, replicate 2 = 3040; inactive.
After knock-down of CG43896 (GeneID 39360) [DRSC10288], the screen gave firefly Hh reporter signal, replicate 1 = 59786; firefly Hh reporter signal, replicate 2 = 52276; firefly Hh reporter signal, replicate 3 = 42276; Renilla reference signal, replicate 1 = 4736; Renilla reference signal, replicate 2 = 3106; inactive.
Depletion of CG43896 (GeneID 39360) [DRSC10754] gave: firefly Hh reporter signal, replicate 1 = 72280; firefly Hh reporter signal, replicate 2 = 44855; firefly Hh reporter signal, replicate 3 = 43255; Renilla reference signal, replicate 1 = 4257; Renilla reference signal, replicate 2 = 3202; inactive.
For CG31556 (retired record) (GeneID 318800) [DRSC12122], the values are firefly Hh reporter signal, replicate 1 = 6.94e5; firefly Hh reporter signal, replicate 2 = 2.40e5; firefly Hh reporter signal, replicate 3 = 1.41e5; Renilla reference signal, replicate 1 = 6428; Renilla reference signal, replicate 2 = 5370; inactive.
With knock-down of CG31189 (GeneID 42487) [DRSC16198], the record shows firefly Hh reporter signal, replicate 1 = 5.69e5; firefly Hh reporter signal, replicate 2 = 79751; Renilla reference signal, replicate 1 = 28309; Renilla reference signal, replicate 2 = 2474; inactive.
MP1 (GeneID 40541) [DRSC12124] showed firefly Hh reporter signal, replicate 1 = 1.72e5; firefly Hh reporter signal, replicate 2 = 6.59e5; firefly Hh reporter signal, replicate 3 = 1.41e5; Renilla reference signal, replicate 1 = 6386; Renilla reference signal, replicate 2 = 40891; inactive.
Against Daao2 (GeneID 33955) [DRSC02135] the deposit lists firefly Hh reporter signal, replicate 1 = 94582; firefly Hh reporter signal, replicate 2 = 1.18e5; Renilla reference signal, replicate 1 = 3877; Renilla reference signal, replicate 2 = 4890; inactive.
For CG42260 (GeneID 37614) [DRSC04172], the entry reads firefly Hh reporter signal, replicate 1 = 1.01e5; firefly Hh reporter signal, replicate 2 = 68262; Renilla reference signal, replicate 1 = 1824; Renilla reference signal, replicate 2 = 5958; inactive.
With knock-down of CG42260 (GeneID 37614) [DRSC04385], the record shows firefly Hh reporter signal, replicate 1 = 90912; firefly Hh reporter signal, replicate 2 = 75504; Renilla reference signal, replicate 1 = 1905; Renilla reference signal, replicate 2 = 6721; inactive.
CG13438 (GeneID 37348) [DRSC06398] showed firefly Hh reporter signal, replicate 1 = 85600; firefly Hh reporter signal, replicate 2 = 52269; Renilla reference signal, replicate 1 = 3338; Renilla reference signal, replicate 2 = 4549; inactive.
With knock-down of CG14137 (GeneID 39300) [DRSC10142], the record shows firefly Hh reporter signal, replicate 1 = 50235; firefly Hh reporter signal, replicate 2 = 70156; firefly Hh reporter signal, replicate 3 = 53525; Renilla reference signal, replicate 1 = 5750; Renilla reference signal, replicate 2 = 3666; inactive.

In a second layout: entries from further up
predicted target | dsRNA | firefly Hh reporter signal, replicate 1 | firefly Hh reporter signal, replicate 2 | firefly Hh reporter signal, replicate 3 | Renilla reference signal, replicate 1 | Renilla reference signal, replicate 2 | call
CG43896 (GeneID 39360) | DRSC10288 | 59786 | 52276 | 42276 | 4736 | 3106 | inactive
CG43896 (GeneID 39360) | DRSC10754 | 72280 | 44855 | 43255 | 4257 | 3202 | inactive

More reagents follow:
After knock-down of CG5160 (GeneID 34015) [DRSC02821], the screen gave firefly Hh reporter signal, replicate 1 = 1.56e5; firefly Hh reporter signal, replicate 2 = 68145; Renilla reference signal, replicate 1 = 3970; Renilla reference signal, replicate 2 = 7014; inactive.
For RhoGAP92B (GeneID 42371) [DRSC14507] the deposit lists firefly Hh reporter signal, replicate 1 = 6.47e5; firefly Hh reporter signal, replicate 2 = 1.04e5; Renilla reference signal, replicate 1 = 31704; Renilla reference signal, replicate 2 = 2667; inactive.
RhoGAP92B (GeneID 42371) [DRSC15637] showed firefly Hh reporter signal, replicate 1 = 5.68e5; firefly Hh reporter signal, replicate 2 = 1.25e5; Renilla reference signal, replicate 1 = 26675; Renilla reference signal, replicate 2 = 2564; inactive.
With knock-down of Lectin-galC1 (GeneID 35216) [DRSC03362] the results were firefly Hh reporter signal, replicate 1 = 88825; firefly Hh reporter signal, replicate 2 = 40233; Renilla reference signal, replicate 1 = 2493; Renilla reference signal, replicate 2 = 3788; inactive.
For CG15525 (GeneID 43556) [DRSC15062] the deposit lists firefly Hh reporter signal, replicate 1 = 1.07e5; firefly Hh reporter signal, replicate 2 = 93024; Renilla reference signal, replicate 1 = 4076; Renilla reference signal, replicate 2 = 2901; inactive.
After knock-down of ND4 (retired record) (GeneID 192476) [DRSC21269] the results were firefly Hh reporter signal, replicate 1 = 2.18e5; firefly Hh reporter signal, replicate 2 = 4.03e5; Renilla reference signal, replicate 1 = 7251; Renilla reference signal, replicate 2 = 18627; inactive.
For CG31510 (GeneID 326146) [DRSC14182] the deposit lists firefly Hh reporter signal, replicate 1 = 5.78e5; firefly Hh reporter signal, replicate 2 = 82477; Renilla reference signal, replicate 1 = 28573; Renilla reference signal, replicate 2 = 2410; inactive.
For CG34425 (GeneID 5740837) [DRSC12210] the deposit lists firefly Hh reporter signal, replicate 1 = 1.64e5; firefly Hh reporter signal, replicate 2 = 1.52e5; Renilla reference signal, replicate 1 = 5305; Renilla reference signal, replicate 2 = 4176; inactive.
With knock-down of CG6675 (GeneID 35439) [DRSC03735], the screen gave firefly Hh reporter signal, replicate 1 = 81976; firefly Hh reporter signal, replicate 2 = 1.04e5; Renilla reference signal, replicate 1 = 2224; Renilla reference signal, replicate 2 = 7200; inactive.
After knock-down of Cyp316a1 (GeneID 38840) [DRSC11130] the results were firefly Hh reporter signal, replicate 1 = 63075; firefly Hh reporter signal, replicate 2 = 36695; Renilla reference signal, replicate 1 = 6825; Renilla reference signal, replicate 2 = 2861; inactive.
